No constants are given. Whether binding was seen depends on the method and setting. Binding seen in cells or lysates may run through a third protein. Some entries that bind do so weakly or less than the wild type.

Protein sequences, listed by entry. Tags and fused reporters are not part of them. Residues count along the entry.
UniProt P20029, residues 20-655: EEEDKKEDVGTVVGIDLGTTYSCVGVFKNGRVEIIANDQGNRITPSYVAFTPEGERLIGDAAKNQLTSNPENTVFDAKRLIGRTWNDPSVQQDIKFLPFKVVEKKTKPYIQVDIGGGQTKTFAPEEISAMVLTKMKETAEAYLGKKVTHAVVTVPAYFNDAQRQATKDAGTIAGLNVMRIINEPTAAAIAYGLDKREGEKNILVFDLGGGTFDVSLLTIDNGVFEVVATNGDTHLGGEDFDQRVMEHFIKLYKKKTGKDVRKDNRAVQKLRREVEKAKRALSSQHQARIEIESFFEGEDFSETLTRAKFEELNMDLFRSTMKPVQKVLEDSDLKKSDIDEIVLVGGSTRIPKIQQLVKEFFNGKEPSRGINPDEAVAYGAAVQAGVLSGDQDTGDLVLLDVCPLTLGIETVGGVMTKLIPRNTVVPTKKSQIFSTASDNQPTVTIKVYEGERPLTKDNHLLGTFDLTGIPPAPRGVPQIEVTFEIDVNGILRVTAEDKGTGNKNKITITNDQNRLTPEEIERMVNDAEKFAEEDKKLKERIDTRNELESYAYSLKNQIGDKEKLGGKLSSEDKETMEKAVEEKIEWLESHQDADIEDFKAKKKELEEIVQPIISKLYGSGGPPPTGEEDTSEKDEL
UniProt Q91VN0, residues 31-1614: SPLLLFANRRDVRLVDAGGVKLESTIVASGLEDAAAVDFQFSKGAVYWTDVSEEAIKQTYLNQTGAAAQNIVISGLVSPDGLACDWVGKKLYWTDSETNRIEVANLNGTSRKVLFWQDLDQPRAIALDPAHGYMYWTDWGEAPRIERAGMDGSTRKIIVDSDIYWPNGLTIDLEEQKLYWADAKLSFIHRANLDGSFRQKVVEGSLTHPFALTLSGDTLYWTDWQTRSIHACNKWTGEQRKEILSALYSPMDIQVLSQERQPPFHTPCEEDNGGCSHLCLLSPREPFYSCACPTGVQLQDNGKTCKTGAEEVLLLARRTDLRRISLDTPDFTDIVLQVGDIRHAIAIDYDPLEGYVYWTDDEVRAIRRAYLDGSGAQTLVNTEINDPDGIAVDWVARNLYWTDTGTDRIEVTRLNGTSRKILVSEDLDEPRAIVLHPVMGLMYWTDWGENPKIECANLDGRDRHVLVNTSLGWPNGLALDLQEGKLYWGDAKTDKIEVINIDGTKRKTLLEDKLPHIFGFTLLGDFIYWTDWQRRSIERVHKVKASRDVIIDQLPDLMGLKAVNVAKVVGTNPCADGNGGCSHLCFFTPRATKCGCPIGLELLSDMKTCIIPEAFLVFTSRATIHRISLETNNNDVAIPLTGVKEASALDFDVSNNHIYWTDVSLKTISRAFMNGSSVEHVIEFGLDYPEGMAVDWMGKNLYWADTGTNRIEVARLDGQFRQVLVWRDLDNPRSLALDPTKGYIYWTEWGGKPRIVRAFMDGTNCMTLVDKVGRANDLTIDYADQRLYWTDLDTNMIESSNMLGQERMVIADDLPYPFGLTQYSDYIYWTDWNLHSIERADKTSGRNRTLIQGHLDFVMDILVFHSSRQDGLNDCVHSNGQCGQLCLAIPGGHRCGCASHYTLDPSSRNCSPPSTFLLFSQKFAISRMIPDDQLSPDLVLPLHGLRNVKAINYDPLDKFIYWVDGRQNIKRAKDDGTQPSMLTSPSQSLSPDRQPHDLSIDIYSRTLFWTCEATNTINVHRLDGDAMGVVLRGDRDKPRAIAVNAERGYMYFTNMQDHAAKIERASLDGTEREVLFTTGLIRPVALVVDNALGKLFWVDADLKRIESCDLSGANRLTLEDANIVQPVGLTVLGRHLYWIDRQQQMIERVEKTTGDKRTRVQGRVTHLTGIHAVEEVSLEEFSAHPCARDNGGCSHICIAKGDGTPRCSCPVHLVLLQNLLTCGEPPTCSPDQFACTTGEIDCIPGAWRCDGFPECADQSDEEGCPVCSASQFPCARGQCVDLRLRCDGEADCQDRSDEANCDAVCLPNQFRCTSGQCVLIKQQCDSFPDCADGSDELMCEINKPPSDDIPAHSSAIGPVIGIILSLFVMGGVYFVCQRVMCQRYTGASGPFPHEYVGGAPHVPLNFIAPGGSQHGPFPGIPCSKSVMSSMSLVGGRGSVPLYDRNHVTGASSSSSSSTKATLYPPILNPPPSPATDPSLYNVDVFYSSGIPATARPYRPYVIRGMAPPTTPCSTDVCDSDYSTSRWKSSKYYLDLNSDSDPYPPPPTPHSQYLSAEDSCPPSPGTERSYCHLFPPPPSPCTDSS

For the assay, the target named is GRP78 (mouse (endogenous in 4T1)) (UniProt P20029). Kind of assay: co-IP; Pierce Co-Immunoprecipitation Kit; GRP78 antibody immobilised on resin, incubated with 4T1 cell lysates, LRP5 detected by immunoblotting; quenched antibody coupling resin as negative control; cells treated with cortisol and with SNS (200 μg/ml) for 24 h.

In the case of “LRP5 (from UniProt Q91VN0 31-1614) (receptor)”, the binding result is “binds”.

The values above are taken from publication PMC8667778.
